From publication PMC12582992
Results are given in words; binding and its absence hold for the method and conditions named. Binding seen in cells or lysates may run through a third protein. Some binding calls cover weakened binding; strength is not graded here.

Sequences of proteins named here, by UniProt entry; tags and fusion partners are left off.
UniProt Q9UFF9: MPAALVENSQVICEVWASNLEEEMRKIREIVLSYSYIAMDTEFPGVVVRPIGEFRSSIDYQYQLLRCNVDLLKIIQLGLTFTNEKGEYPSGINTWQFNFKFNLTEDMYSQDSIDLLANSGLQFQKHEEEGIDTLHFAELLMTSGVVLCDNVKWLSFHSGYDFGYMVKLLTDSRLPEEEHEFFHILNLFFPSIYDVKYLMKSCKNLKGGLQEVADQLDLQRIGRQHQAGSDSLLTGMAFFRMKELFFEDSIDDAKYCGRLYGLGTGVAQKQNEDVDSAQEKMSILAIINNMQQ

Columns and labels:
[1] = target: FLAG-CNOT1 (1318–1589) (human) (UniProt A5YKK6); assay: co-IP; FLAG-tagged bait expressed in HEK293T cells, TNE lysis buffer (1% NP-40, 50 mM Tris/HCl pH 7.5, 150 mM NaCl, 1 mM EDTA), anti-FLAG antibody 1 h and Protein G Sepharose 2 h at 4 °C, endogenous partners by immunoblotting; the paper calls it a pull-down assay
[2] = target: Flag-tagged CNOT9 WT (human) (UniProt Q92600); assay: as above
[3] = target: FLAG-CNOT1 (1473–1537) (human) (UniProt A5YKK6); assay: as above
[4] = target: CNOT3 (human (endogenous in HeLa)) (UniProt O75175); assay: co-IP; immunoprecipitation with anti-CNOT3 antibody from WT or CNOT9 KO HeLa cells, western blotting
[5] = target: CNOT2 (human (endogenous in HEK293T)) (UniProt Q9NZN8); assay: co-IP; immunoprecipitation with anti-CNOT2 and CNOT3 antibodies from HEK293T cells, western blotting
[6] = target: CNOT3 (human (endogenous in HEK293T)) (UniProt O75175); assay: as above

CNOT8 (from UniProt Q9UFF9 1-292)
binding [1]: no binding

CNOT3 (from UniProt O75175 1-753)
binding [1]: no binding

CNOT1 (from UniProt A5YKK6 1-2376)
binding [2]: binds

CNOT9 (from UniProt Q92600 1-299)
binding [1]: binds | binding [3]: no binding

B1: RNF219 (protein, UniProt Q5W0B1 1-726)
chain: MAQTVQNVTLSLTLPITCHICLGKVRQPVICINNHVFCSICIDLWLKNNSQCPACRVPITPENPCKEIIGGTSESEPMLSHTVRKHLRKTRLELLHKEYEDEIDCLQKEVEELKSKNLSLESQIKTILDPLTLVQGNQNEDKHLVTDNPSKINPETVAEWKKKLRTANEIYEKVKDDVDKLKEANKKLKLENGGLVRENLRLKAEVDNRSPQKFGRFAVAALQSKVEQYERETNRLKKALERSDKYIEELESQVAQLKNSSEEKEAMNSICQTALSADGKGSKGSEEDVVSKNQGDSARKQPGSSTSSSSHLAKPSSSRLCDTSSARQESTSKADLNCSKNKDLYQEQVEVMLDVTDTSMDTYLEREWGNKPSDCVPYKDEELYDLPAPCTPLSLSCLQLSTPENRESSVVQAGGSKKHSNHLRKLVFDDFCDSSNVSNKDSSEDDISRSENEKKSECFSSPKTGFWDCCSTSYAQNLDFESSEGNTIANSVGEISSKLSEKSGLCLSKRLNSIRSFEMNRTRTSSEASMDAAYLDKISELDSMMSESDNSKSPCNNGFKSLDLDGLSKSSQGSEFLEEPDKLEEKTELNLSKGSLTNDQLENGSEWKPTSFFLLSPSDQEMNEDFSLHSSSCPVTNEIKPPSCLFQTEFSQGILLSSSHRLFEDQRFGSSLFKMSSEMHSLHNHLQSPWSTSFVPEKRNKNVNQSTKRKIQSSLSSASPSKATKS
binding [4]: binds

B2: RNF219, ring finger protein 219 (protein, UniProt Q5W0B1 1-726)
chain: B1 chain
binding [5]: binds | binding [6]: binds
